# Assay results reported in patent US10201532B2, “Compounds and their use” (ALLECRA THERAPEUTICS GMBH, priority 2010, dated 2019).
# At least one read-out could not be matched to a standard name with certainty.
# Tested on: KPC-3 expressing E. coli (J53 R6206)
# Assay: Synergistic broth micro-dilution MIC (checkerboard)
# Assay type: cell-based, Escherichia coli
row,Structure (SMILES),MIC of BLI alone
1,"C[n+]1ccn(C[C@@]2(C)[C@H](C(=O)[O-])N3C(=O)C[C@H]3S2(=O)=O)n1 [Compound-1, 1-{[(2S,3S,5R)-2-Carboxy-3-methyl-4,4,7-trioxo-4-thia-1-azabicyclo[3.2.0]hept-3-yl]methyl}-3-methyl-1H-1,2,3-triazol-3-ium]",>16 µg/mL
2,C[C@]1(Cn2ccnn2)[C@H](C(=O)O)N2C(=O)C[C@H]2S1(=O)=O [Tazobactam],>16 µg/mL
